# From PubChem BioAssay AID588497 (NMMLSC, 2011)
# About 780 (0.22%) of roughly 360,000 compounds were called active. The inconclusive results got no clear call from the source; some entries with a clear call stand among them for comparison. Rule as the data show it: active = inhibition above about 35% (passing the limit was not always enough); inconclusive = no clear call, values can overlap the other calls.
# Tested on: Botulinum neurotoxin type F light chain protease (Clostridium botulinum)
# Test: BoNT/F light chain protease inhibitors, primary screen, biochemical, flow cytometry, MLPCN library (AID 588497); also: plate controls were buffer without enzyme for full effect and enzyme alone for no effect
# Conditions: Multiplex microsphere protease cleavage assay, at 10 µM, hits give high values
row,SMILES,inhibition
1,O=C(NCCc1cccs1)C1CC1,inconclusive: -16.3%
2,CC(N1CCOC1=O)S(=O)(=O)c1ccccc1 (centres undefined),inconclusive: -0.4%
3,O=C(Cc1ccccc1[N+](=O)[O-])NNC(=O)c1ccncc1,inconclusive: 5.1%
4,COc1cc2c(cc1OC)C(C)N(C(=O)c1c(-c3ccccc3)noc1C)CC2 (centres undefined),inconclusive: 26.9%
5,CCOc1ccc(OCc2ccc(C(=O)N(C)c3ccccc3)o2)cc1,inconclusive: -10.4%
6,CCOC(=O)c1ccc(O)c(-n2cc3c(c2-c2ccccc2)c(=O)n(C)c(=O)n3C)c1,inactive: 3.4%
7,COc1cc(N2N=C(c3ccccc3)CC2c2ccccc2)c(C=O)cc1C=O (centres undefined),inconclusive: -4.2%
8,O=[N+]([O-])c1ncn(C23CC4CC(CC(C4)C2)C3)n1,inconclusive: -10.4%
9,COc1cc(/C(C)=N/N2CCN(c3ccccc3OC)CC2)ccc1O,inconclusive: -55.9%
10,CCCN(Cc1cc2ccc(C)cc2[nH]c1=O)C(=O)c1cccnc1,inconclusive: 0.5%
11,Cn1cnnc1Sc1cc(N2CCNCC2)ccc1[N+](=O)[O-],inconclusive: -12.8%
12,COc1ccccc1OCC(=O)NNC(=O)CCCC(=O)NNC(=O)COc1ccccc1OC,inconclusive: 13%
13,CCN1C(=O)c2ccc(C(=O)Nc3c(C)cc(C)cc3C)cc2C1=O,inconclusive: 17.4%
14,COc1cc(C#Cc2c(C=O)n(C)c3ccccc23)cc(OC)c1,inactive: 11.4%
15,CSc1cccc(NC(=O)CSc2nnc(C)s2)c1,inactive: -2.7%
16,COC(=O)C1CC2=C(CCC2=O)N(c2ccccc2)C1=O (centres undefined),inactive: -4.5%
17,Cc1cc(-c2ccccc2)n2ncnc2n1,inconclusive: -9.4%

row,SMILES,inhibition
1,CCOC(=O)c1ccc(-c2ccc(N3C(c4cccc(OC)c4)=Cc4ccc(F)cc4C3CC(C)=O)cc2)cc1F (centres undefined),inactive: 6.5%
2,COc1ccc(Cl)c(NCCC(=O)O)c1,inconclusive: -18.2%
4,COc1cc(CN2C(=O)C(C)ON=C2c2cccs2)cc(OC)c1 (centres undefined),inactive: -0.9%
5,CCc1ccccc1NC(=O)C1COc2ccccc2O1 (centres undefined),inconclusive: -20.3%
6,C[N+]1(CCN2C(=O)C3CC=C(Cl)CC3C2=O)CCOCC1 (centres undefined),inconclusive: 3.9%
7,CCOc1ccc(NC(=O)C2CCCN(S(C)(=O)=O)C2)cc1 (centres undefined),inconclusive: -74.2%
8,CC(C)c1ccc(NC(=O)C2CC3CCC2C3)cc1 (centres undefined),inconclusive: 19.8%
9,Cc1occc1C(=O)N/N=C/c1ccc(N(C)C)cc1,inconclusive: 53.6%
10,O=C(/C=C/c1ccccc1)Nc1cccc(C(=O)NCCCCc2ccccc2)c1,inactive: 3.1%
11,CC(NC(C(=O)c1ccccc1)c1ccccc1)c1ccccc1 (centres undefined),inactive: -6%
12,O=C1CC(c2ccccc2)n2nc(N3C(=O)c4ccccc4C3=O)nc2N1 (centres undefined),inconclusive: -0.1%
13,COc1ccc(-c2nn(-c3ccccc3)cc2C(=O)Nc2cccc(C(=O)O)c2)cc1[N+](=O)[O-],inconclusive: -13.8%
14,CC(C)CNC(=S)N(CCN(C)C)Cc1cc2cc3c(cc2[nH]c1=O)OCO3,inconclusive: 46.1%
15,CCn1c(SCc2nc3ccccc3[nH]2)nnc1-c1cccs1,inactive: 10.1%
16,Cc1cc(NC(=O)CSCC(=O)Nc2ccccc2N2CCCCC2)no1,inconclusive: 5%
17,O=C(O)C1CC(=O)N(C2CCCCC2)C1c1ccccc1 (centres undefined),inconclusive: 28.9%

# An excerpt from above in order of molecular weight, low to high:
row,SMILES,inhibition
8,CC(C)c1ccc(NC(=O)C2CC3CCC2C3)cc1 (centres undefined),inconclusive: 19.8%
11,Cn1cnnc1Sc1cc(N2CCNCC2)ccc1[N+](=O)[O-],inconclusive: -12.8%
15,CCn1c(SCc2nc3ccccc3[nH]2)nnc1-c1cccs1,inactive: 10.1%
